In US20170112792A1, “ENHANCED ATRA-RELATED COMPOUNDS DERIVED FROM STRUCTURE-ACTIVITY RELATIONSHIPS AND MODELING FOR INHIBITING PIN1” (Beth Israel Deaconess Medical Center, Inc., priority 2014, published 2017):
No constants are given. Whether binding was seen depends on the method and setting. In cells and extracts the contact can be indirect. Some entries that bind do so weakly or less than the wild type.

Protein sequences, listed by entry. Tags and fused reporters are not part of them.
UniProt Q9QUR7: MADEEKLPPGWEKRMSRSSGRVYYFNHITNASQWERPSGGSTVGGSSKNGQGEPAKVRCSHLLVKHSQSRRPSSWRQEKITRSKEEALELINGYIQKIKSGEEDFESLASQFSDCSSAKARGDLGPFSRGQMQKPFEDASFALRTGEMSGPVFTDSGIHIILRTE

Experiments:
IRAKM S110E [1] = molecular target: T1, IRAKM S110E (UniProt Q9Y616); experiment: co-IP with anti-IRAKM antibody from DC2.4 cells stably expressing IRAKM, S110E or P111A, without and with IL33, western blot for Pin1
T1 sequence (looked up): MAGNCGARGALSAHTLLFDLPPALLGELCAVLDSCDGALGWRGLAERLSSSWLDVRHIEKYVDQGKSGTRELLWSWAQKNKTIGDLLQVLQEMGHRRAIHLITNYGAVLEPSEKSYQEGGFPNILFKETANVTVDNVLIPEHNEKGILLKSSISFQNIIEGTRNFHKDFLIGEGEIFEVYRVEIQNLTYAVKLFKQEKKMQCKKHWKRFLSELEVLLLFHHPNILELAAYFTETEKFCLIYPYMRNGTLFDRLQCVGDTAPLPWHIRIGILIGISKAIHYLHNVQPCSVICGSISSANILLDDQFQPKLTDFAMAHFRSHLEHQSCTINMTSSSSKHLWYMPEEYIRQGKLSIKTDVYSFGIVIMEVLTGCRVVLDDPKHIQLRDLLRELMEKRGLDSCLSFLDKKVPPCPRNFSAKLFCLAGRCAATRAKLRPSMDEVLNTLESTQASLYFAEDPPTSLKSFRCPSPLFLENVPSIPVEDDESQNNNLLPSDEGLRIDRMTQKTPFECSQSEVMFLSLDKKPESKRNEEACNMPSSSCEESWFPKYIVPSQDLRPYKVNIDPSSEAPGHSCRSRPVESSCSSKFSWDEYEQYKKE

IRAKM S110E [2] = molecular target: T1, IRAKM S110E; experiment: CO-IP in DC2.4 cells (FIG. 58D)

binding (IRAKM S110E [1]): binds | binding (IRAKM S110E [2]): binds
Substance: Pin1, endogenous in DC2.4 cells (from UniProt Q9QUR7 1-165) (enzyme)
